Some of the results follow. The data scatter; read single values as rough.

Sequences of proteins named here, by UniProt entry; tags and fusion partners are left off. A change or cut given only in a name is not applied to a line headed by its entry. Residues count along the entry.
UniProt Q49AR2, 182-204: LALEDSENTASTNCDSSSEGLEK
UniProt Q9HB71: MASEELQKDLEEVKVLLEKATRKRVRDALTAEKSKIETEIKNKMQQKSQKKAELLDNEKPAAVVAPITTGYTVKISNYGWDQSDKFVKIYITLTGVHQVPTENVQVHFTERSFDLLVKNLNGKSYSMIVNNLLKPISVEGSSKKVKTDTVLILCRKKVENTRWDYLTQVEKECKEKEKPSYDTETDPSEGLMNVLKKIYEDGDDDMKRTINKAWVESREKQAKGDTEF
UniProt Q96N11, whole entry, looked up: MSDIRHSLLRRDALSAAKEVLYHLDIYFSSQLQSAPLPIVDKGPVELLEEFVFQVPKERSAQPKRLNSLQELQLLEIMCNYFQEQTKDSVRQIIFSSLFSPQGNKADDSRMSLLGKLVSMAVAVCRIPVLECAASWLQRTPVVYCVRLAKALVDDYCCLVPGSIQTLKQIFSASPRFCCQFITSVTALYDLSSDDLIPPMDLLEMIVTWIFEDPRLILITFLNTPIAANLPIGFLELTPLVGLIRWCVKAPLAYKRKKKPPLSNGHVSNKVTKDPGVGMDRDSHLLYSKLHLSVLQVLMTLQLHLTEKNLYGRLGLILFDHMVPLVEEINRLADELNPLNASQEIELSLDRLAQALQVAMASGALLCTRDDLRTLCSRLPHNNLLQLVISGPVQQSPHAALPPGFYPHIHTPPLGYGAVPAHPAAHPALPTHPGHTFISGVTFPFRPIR
UniProt P51587: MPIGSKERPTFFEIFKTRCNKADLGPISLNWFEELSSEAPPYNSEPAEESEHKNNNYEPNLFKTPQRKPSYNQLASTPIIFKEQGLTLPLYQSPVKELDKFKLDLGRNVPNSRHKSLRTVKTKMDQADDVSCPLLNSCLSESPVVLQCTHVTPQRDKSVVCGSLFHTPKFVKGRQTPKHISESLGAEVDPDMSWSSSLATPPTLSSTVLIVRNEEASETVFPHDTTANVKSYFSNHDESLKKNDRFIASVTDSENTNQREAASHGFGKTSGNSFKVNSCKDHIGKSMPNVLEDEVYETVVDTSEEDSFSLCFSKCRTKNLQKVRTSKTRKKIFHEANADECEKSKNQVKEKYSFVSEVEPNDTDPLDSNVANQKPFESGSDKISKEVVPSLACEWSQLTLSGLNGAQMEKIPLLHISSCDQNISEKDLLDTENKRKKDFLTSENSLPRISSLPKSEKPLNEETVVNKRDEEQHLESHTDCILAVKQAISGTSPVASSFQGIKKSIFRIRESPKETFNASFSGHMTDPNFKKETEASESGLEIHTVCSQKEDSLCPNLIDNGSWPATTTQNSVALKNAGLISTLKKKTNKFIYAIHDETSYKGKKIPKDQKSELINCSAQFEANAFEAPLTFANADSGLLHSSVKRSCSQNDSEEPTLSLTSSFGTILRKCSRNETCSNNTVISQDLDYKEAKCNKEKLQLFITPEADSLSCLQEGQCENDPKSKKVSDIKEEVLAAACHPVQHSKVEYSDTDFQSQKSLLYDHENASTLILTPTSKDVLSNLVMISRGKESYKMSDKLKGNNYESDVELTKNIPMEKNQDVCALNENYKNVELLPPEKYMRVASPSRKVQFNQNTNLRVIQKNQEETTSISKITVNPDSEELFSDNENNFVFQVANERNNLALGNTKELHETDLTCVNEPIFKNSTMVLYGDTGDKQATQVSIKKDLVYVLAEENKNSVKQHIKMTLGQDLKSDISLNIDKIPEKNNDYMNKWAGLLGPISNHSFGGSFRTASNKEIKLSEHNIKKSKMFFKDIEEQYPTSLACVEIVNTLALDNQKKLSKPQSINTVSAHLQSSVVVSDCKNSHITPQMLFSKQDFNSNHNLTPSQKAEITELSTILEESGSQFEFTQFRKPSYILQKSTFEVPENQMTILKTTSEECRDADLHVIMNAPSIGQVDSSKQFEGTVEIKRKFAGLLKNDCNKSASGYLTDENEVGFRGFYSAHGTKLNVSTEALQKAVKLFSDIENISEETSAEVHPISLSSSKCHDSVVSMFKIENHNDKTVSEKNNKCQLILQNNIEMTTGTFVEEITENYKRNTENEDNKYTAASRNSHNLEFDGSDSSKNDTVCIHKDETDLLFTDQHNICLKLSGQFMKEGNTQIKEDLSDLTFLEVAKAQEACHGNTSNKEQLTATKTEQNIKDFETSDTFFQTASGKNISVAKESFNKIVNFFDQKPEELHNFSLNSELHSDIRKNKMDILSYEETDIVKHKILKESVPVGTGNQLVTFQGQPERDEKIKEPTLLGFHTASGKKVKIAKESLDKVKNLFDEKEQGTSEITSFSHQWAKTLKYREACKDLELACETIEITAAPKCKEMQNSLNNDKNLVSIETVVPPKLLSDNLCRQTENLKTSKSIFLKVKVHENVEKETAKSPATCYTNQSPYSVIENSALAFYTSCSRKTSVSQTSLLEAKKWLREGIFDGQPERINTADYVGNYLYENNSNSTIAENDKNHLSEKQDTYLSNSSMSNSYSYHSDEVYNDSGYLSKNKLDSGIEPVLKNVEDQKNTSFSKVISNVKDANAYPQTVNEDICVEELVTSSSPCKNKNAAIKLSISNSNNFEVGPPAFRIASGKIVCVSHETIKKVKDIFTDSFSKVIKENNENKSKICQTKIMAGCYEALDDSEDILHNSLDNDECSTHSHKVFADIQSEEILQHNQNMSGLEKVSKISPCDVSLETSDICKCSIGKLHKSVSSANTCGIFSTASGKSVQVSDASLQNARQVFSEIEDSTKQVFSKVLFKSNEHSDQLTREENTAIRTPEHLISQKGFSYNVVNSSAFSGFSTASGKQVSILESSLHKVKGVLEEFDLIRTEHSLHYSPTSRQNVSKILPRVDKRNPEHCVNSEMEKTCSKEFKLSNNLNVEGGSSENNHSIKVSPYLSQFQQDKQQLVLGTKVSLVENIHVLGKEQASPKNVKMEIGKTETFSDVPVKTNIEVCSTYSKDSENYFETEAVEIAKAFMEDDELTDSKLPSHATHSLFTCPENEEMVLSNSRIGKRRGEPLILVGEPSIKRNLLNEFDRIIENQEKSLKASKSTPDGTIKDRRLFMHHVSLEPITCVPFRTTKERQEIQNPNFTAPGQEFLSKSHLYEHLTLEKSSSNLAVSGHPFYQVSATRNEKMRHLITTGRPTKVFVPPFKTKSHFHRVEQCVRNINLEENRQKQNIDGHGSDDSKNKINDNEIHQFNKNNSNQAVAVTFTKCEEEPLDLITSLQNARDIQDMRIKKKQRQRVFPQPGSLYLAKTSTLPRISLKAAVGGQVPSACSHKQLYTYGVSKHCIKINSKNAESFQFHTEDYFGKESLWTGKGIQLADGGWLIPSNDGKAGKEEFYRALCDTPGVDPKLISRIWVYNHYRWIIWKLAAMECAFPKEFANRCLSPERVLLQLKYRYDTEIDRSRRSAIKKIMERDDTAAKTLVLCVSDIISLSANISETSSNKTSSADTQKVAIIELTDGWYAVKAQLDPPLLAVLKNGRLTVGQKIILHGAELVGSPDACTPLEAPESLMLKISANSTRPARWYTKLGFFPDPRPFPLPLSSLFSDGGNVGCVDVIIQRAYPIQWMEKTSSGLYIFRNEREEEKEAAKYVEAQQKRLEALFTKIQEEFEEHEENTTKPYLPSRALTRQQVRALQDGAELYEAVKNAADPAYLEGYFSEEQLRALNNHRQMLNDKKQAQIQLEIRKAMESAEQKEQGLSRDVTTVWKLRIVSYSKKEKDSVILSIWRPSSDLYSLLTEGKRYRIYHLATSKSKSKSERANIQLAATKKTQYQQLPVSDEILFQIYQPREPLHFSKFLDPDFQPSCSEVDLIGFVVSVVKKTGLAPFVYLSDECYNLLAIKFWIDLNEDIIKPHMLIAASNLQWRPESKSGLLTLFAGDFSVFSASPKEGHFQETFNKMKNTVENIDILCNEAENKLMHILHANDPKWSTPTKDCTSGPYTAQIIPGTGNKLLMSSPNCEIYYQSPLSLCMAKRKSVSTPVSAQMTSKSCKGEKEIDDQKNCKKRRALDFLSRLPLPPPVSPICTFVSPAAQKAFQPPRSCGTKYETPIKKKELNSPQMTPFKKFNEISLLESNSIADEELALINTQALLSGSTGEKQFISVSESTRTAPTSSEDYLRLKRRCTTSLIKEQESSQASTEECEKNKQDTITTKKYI
UniProt P07738: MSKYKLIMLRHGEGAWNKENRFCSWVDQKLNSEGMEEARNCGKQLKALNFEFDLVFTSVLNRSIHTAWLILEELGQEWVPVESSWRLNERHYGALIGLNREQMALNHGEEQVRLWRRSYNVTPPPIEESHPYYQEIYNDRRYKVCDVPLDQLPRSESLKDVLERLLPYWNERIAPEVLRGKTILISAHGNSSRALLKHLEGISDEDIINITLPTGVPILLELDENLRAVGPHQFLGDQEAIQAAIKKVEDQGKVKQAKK
UniProt P42574, 165-186: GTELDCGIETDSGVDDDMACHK
UniProt P20810: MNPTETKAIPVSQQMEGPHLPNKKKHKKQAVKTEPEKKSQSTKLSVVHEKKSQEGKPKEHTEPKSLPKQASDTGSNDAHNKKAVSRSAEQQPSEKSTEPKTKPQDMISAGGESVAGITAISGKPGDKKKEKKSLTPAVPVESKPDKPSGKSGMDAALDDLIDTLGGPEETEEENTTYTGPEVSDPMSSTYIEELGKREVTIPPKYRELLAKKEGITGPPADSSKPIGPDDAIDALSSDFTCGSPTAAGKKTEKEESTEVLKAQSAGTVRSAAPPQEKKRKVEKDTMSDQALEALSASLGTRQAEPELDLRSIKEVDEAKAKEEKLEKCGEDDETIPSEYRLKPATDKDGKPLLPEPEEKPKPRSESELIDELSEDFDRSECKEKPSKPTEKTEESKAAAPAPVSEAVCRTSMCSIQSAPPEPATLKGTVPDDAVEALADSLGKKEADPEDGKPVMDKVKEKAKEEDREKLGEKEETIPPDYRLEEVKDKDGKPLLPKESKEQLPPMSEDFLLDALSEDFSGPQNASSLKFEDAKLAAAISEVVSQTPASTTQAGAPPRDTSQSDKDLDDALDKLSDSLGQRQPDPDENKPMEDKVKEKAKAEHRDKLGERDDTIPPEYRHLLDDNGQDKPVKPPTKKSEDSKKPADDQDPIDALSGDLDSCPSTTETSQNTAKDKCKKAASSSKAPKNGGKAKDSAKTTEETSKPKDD
UniProt Q9NS00: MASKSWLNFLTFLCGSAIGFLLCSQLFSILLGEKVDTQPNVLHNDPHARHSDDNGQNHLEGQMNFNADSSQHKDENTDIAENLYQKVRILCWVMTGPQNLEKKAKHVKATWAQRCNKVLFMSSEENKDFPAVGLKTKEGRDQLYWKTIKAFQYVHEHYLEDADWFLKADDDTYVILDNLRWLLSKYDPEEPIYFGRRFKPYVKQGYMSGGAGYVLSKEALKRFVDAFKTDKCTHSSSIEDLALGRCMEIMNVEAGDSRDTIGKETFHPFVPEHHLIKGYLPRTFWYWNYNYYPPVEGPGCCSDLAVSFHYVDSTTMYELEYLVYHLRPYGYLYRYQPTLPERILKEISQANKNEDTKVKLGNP
UniProt Q5PSV4: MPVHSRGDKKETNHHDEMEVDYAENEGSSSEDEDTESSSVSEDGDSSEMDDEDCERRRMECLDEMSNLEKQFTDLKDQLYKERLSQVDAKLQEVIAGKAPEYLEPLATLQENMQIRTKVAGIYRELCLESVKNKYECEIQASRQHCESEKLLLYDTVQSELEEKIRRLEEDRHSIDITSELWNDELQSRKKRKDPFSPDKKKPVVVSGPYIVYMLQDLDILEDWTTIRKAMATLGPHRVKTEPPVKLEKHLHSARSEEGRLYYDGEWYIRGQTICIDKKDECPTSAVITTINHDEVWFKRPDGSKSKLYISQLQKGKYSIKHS
UniProt Q7Z569: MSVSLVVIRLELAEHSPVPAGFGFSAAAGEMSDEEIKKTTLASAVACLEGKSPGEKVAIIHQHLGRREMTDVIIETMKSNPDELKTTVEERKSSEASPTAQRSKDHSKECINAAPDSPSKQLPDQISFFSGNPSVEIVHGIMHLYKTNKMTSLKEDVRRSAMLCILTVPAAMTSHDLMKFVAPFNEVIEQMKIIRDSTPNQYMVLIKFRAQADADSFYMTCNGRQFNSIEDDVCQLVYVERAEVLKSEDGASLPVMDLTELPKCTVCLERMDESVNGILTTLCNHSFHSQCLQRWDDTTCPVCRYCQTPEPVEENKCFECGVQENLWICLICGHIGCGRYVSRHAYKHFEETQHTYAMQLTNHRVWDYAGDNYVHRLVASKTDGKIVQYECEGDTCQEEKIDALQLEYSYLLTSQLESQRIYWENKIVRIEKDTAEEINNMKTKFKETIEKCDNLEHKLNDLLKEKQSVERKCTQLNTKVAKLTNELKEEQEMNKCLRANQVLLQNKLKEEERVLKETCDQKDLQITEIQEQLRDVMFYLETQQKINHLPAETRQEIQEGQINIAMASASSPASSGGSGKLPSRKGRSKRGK
UniProt Q96GS4, 168-193: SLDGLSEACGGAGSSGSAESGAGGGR

Compound in the first experiment: ClCC(=O)N[C@@H]1CCCc2ccccc12
As to the kind of experiment: log2 mean competition ratio of IA-DTB cysteine labelling (DMSO/compound) (log2 ratio); higher = stronger cysteine engagement by compound. As to conditions: 50 µM; treatment time: 4 h; cell line lysate: HEK293T. As for the experimental part: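 IA-DTB competitive cysteine chemoproteomics in HEK293T RIPA lysate. Lysates were treated with compound 29 or 30 at 50 or 200 µM for 4 h, then IA-DTB (500 µM, 1 h), trypsin-digested, NeutrAvidin-enriched and analysed by diaPASEF. Competition ratio = intensity DMSO / intensity compound (n=4 treated, n=64 DMSO); binding: mean log2 CR ≥ 1 and p ≤ 0.05 plus QC filters. Target is the cysteine site.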
For CALR C163, the “log2 mean competition ratio” value was 0.174.
For C5orf22 C195 (UniProt Q49AR2), the “log2 mean competition ratio” value is -0.627.
With BRPF1 C570, the “log2 mean competition ratio” value was -0.00596.
Still for that read-out and setting: then CARHSP1 C112, with 0.218.
The same measure, in the same setting: then CACYBP C173 (UniProt Q9HB71), with -0.215; and C7orf26 C145 (UniProt Q96N11), with 0.207; and BUB1B C775 (UniProt O60566), with 0.0725.

Staying with this experiment, now noted: 200 µM; treatment time: 4 h; cell line lysate: HEK293T.
Take BRCA2 C2117 (UniProt P51587): the “log2 mean competition ratio” value is -0.278.
Still for that read-out and setting: the value for BPGM C23 (UniProt P07738) was -0.206; that for CADPS2 C919 was -0.226.
Take CAPNS1 C144: the “log2 mean competition ratio” value is -0.0597.
“CASP3_(C170,C170,C184,C184) (UniProt P42574)”: the “log2 mean competition ratio” value was -0.464.
For the target BRCA2 C341 (UniProt P51587), the “log2 mean competition ratio” value was determined as 0.151.
On the same count and under the same terms, then BRCA2 C822 (UniProt P51587), with 0.115.
Regarding CARMIL1 C235, the “log2 mean competition ratio” value is -0.0283.
Same read-out and setting: then BRCA2 C3198 (UniProt P51587), with -0.357; and CAST C328 (UniProt P20810), with -0.117; and BRIP1 C125 (UniProt Q9BX63), with 0.152.
On the same count and under the same terms, then BRAT1 C246 (UniProt Q6PJG6), with 0.296.
Take CADPS2 C218: the “log2 mean competition ratio” value is 0.0995.
In the case of C1GALT1 C232 (UniProt Q9NS00), the “log2 mean competition ratio” value worked out at 0.0987.
For BPTF C1241, the “log2 mean competition ratio” value turned out to be 0.0451.
CARS1 C506: the “log2 mean competition ratio” value was -0.0748.
Consider C1orf21 C114, for which the “log2 mean competition ratio” value was found to be 0.0278.
For the target BRMS1L C127 (UniProt Q5PSV4), the “log2 mean competition ratio” value was -0.0958.
Still for that read-out and setting: then CBX2 C89 (UniProt Q14781), with -0.0731.
For the target BRAP C47 (UniProt Q7Z569), the “log2 mean competition ratio” value was 0.0681.
On to BRD7 C338 (UniProt Q9NPI1), for which the “log2 mean competition ratio” value was 0.0778.
For BRCA1 C1270 (UniProt P38398), the “log2 mean competition ratio” value was 0.152.
BORCS6 C176 (UniProt Q96GS4): the “log2 mean competition ratio” value was -0.132.

The record behind these values is the supplement of paper PMC11732987, “Enantioselective OTUD7B fragment discovery through chemoproteomics screening and high-throughput optimisation” (Communications Chemistry, 2025).
